Source: PubChem BioAssay AID720703 (Peter MacCallum Cancer Centre, 2013)

- Purpose: 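Kinase knock-down screen for links between AT1R and EGFR signalling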 (primary screen)
- Cells: immortalised, SV40-transformed mammary epithelial cells from human, with stable expression of tagged AT1R
- Reagent: siRNA pool against human genes, 40 nM siRNA pool per well
- Timing: 72 h from transfection to lysis and read-out
- Challenge: angiotensin II stimulation (dose and duration not given); EGFR inhibitor AG1478 also listed
- Measured: 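AlphaScreen bead assay of phosphorylated ERK1/2 in cell lysates, corrected for well confluency, converted to robust z-scores and averaged across two technical replicate plates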
- Reading the numbers: phospho-ERK z-score: higher = more ERK phosphorylation after angiotensin II, relative to plate
- Call rule: 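The 50 highest-ranked pools, at either end of the score, are marked as chosen for follow-up; the cut-off used is not reported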
- Calls: active = picked for secondary screen; inactive = not picked
Here is a random part of 714 deposited reagents. 50 of them (7%) were called active. 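Chosen pools sit at both extremes, so both low and high scores count as candidates; some pools appear more than once.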 A number with no mark means an inactive call. Some reagents were tested in more than one well and are listed for each.

target	phospho-ERK z-score, replicate mean
PRKAA1	2.84 (active)
CDKN2C	-0.74
WNK2	0.75
RPS6KB1	1.16
RFK	0.84
IP6K3	-0.31
ROCK1	-0.29
KALRN	0.8
TAOK3	-1.1 (active)
CDK1	0.55
ETNK2	-0.08
AK5	0.08
NME1	0.88
DYRK2	1.23
PKN2	0.57
NEK9	-0.38
CDKN2B	-0.11
DLG1	-1.02 (active)
TPK1	0.3
PRKCSH	1.15
HK3	-0.98
CDKN1B	-0.42
ULK4	0.3
PKIA	-0.64
PBK	-0.22
CDKL4	1.03
BCKDK	0.03
CIT	0.43
PKN3	-0.98
NEK1	1.55
CIB2	0.92
EPHA2	0.06
WHR1	0.67
TP53RK	-0.14
NME3	-0.32
CAMK1G	0.21
ACVR2A	-0.64
IKBKG	2.09
AXL	-0.36
PTK2	2.07
TBK1	0.18
ULK1	1.64
PFKM	-0.64
CDKN1C	-1.1
CDK5R2	-0.84
MAPK1	3.21 (active)
CSNK1E	-0.64
MAP2K4	0.61
OXSR1	1.14
NADK	-0.88
CDADC1	2.08
PFKFB4	-0.26
EPHA5	-0.38
MAP4K2	1.36
EIF2AK1	-0.08
CDK18	2.62
GRK6	-0.16
PIK3CA	-1.48 (active)
MERTK	-0.24
PANK4	-0.4
KCNH8	-0.24
PLK4	0.77
NEK11	0.78
STK3	-0.94
NEK4	1.17
NIM1K	-0.66
CSNK1G2	-0.84
MAST4	0.18
EPHA8	1.23
EPHB1	1.31
CAMK2B	0.3
CAMK2A	-0.22
CDK7	-0.28
WEE1	-0.27
FN3K	0.48
SGK2	-0.14
PDK1	0.38
PRKX	0.36
ERBB4	-0.48
MAP3K6	0.84
MAP2K3	0.26
TEK	-0.42
IPPK	3.53 (active)
CAMK2D	-0.52
CDKL1	0.21
MAP2K6	0.61
RPS6KA5	1.18
GTF2H1	-0.26
TTBK1	-0.36
NUAK2	2.52
GRK4	0.76
CDKL5	-0.74
GAK	0.14
AKT1	-1.28 (active)
ALDH18A1	0.28
SRC	-0.95
EPHB4	-0.02
PRKCQ	-0.22
IRAK3	-0.88
GK2	-0.82
GSK3A	-0.09
RAF1	0.36
CKS1B	0.17
EFNB3	-0.07
STYK1	-1.66 (active)
EPHA1	0.57
PIK3CB	0.53
MST1R	1.79
PRKAG3	0.73
FGFR2	1.19
GSK3B	1.23
DYRK3	1.02
CDKN1A	-1.12
PDK2	0.2
FGFR4	0.48
PDGFRB	-0.22
CSNK1G1	-1.52 (active)
PKM	-0.24
LMTK1	0.28
PTK7	-0.09
GUCY2C	0.46
MAPKAPK5	1.5
MATK	1.36
RSKR	0.36
DCLK1	-0.6
PRKAR1A	0.9
EPHB3	-1.31 (active)
CDK2	-0.18
HCK	0.5
DLG4	0.82
PRKCE	0.84
CDK11A	-1.34 (active)
ADCK5	0.16
MPP1	-0.28
EPHA10	0.05
PKDCC	-0.03
ETNK1	-0.71
PIK3R4	-0.27
RET	-0.55
POMK	-0.03
POMK	-0.01

Records listed so far called active, once more:
target	phospho-ERK z-score, replicate mean
PRKAA1	2.84 (active)
TAOK3	-1.1 (active)
DLG1	-1.02 (active)
MAPK1	3.21 (active)
PIK3CA	-1.48 (active)
IPPK	3.53 (active)
AKT1	-1.28 (active)
STYK1	-1.66 (active)
CSNK1G1	-1.52 (active)
EPHB3	-1.31 (active)
CDK11A	-1.34 (active)
